Consider one molecule from patent US20080075726A1 (VACCINEX, published 2008).

Assay [1] has as its target IL-11. Description: ELISA, cytokine coated on the plate, mAb at 10, 5, 2.5, 1.25, 0.625, 0.313, 0.156 and 0 ng/ml. In general terms: ELISA stands for enzyme-linked immunosorbent assay.
In assay [2] the target is oncostatin M. The assay is described as above.
Another assay deals with TNF-α. The assay is described as above.
Assay [3] deals with NNT-1. The description is as above.
The target of assay [4] is CNFT. The description is as above.
For assay [5], the target named is IL-11. The assay can be described thus: ELISA on IL-6 superfamily members (FIG. 5A).
The target in assay [6] is oncostatin M. The assay can be described thus: ELISA on IL-6 superfamily members (FIG. 5A).
Assay [7] concerns the target NNT-1. Description: ELISA on IL-6 superfamily members (FIG. 5A).
For assay [8], the target named is CNFT. The assay can be described thus: ELISA on IL-6 superfamily members (FIG. 5A).

Results are given in words; binding and its absence hold for the method and conditions named.

B1: mAb 88 (chimeric B-E8 control antibody) (antibody, V domains shown)
VH: QVTLKESGPGILKPSQTLSLTCSFSGFSLSTSGMGVGWIRQPSGKGLEWLAHIWWDDDKYYNPSLKSQLTISKDTSRNQVFLKITSVDTADTATYYCARSYDDYLYYALDYWGQGTSVTVSS
VL: DIVMTQSPATLSVTPGDRVSLSCRASQSISDYLHWYQQKSHESPRLLIKSVSQSISGIPSRFSGSGSGSDFTLSINSVEPEDVGVYYCQNGHSFPLTFGAGTKLELK
modifications: Biotinylated in FIG. 16.
notes: Chimeric form of murine B-E8; also called control mAb 88
As to B1, the binding result with IL-11 [1] is given as “no binding (tested: 10 ng/ml)”; with oncostatin M [2], “no binding (tested: 10 ng/ml)”; with TNF-α, “no binding (tested: 10 ng/ml)”; with NNT-1 [3], “no binding (tested: 10 ng/ml)”; with CNFT [4], “no binding (tested: 10 ng/ml)”; with IL-11 [5], “no binding”. Also, the binding result with oncostatin M [6], with NNT-1 [7] and with CNFT [8] was “no binding” in each case.
